# Results taken from PubChem BioAssay AID504834 (National Center for Advancing Translational Sciences (NCATS), 2011).
# Several values for one entry are separate records, joined by “and”; a condition that tells them apart may be missing. Identical values can stand only once. Screen size: about 320,000 compounds; about 22,000 (6.9%) were called active. This list was built around the results that the source calls inconclusive (neither active nor inactive); the mix of calls is not that of the screen. Calls follow the shape of the dose curve; as a rule, active = well fitted inhibition curve with a large enough effect; inconclusive = small, poorly fitted or top-dose-only effect, or another doubt; inactive = no such curve, though single readings can be large or run the other way. A potency beside an inconclusive call is a rough fit, not a confirmed value. The source holds several records for some structures; these can differ, active in one and inactive in another.
# Test: Primary qHTS for delayed death inhibitors of the malarial parasite plastid, 96 hour incubation
# Details: P. falciparum luciferase reporter growth; series mostly up to 28.7 µM
# In short: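 Plates of compound plus infected erythrocytes (2% hematocrit, 0.05% parasitemia final) incubate 96 hours, 37 C, 5% CO2. Detection reagent added; reduced luminescence from the parasites' luciferase reporter flags inhibition.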
# Potency is read from the fitted curve at half-maximal effect.
row,Compound,Potency
1,CCCCN(CCCC)CCCN1CC(=O)N2[C@@H](Cc3c([nH]c4ccccc34)C2(C)C)C1=O,"inconclusive: 9.28 µM [inhibitor, partial curve, poor fit]"
2,Cn1c(/C=N/NC(=O)c2ccccc2Br)nc2ccccc21,"inconclusive: 1.31 µM [inhibitor, full curve]"
3,Cc1ccc(CSc2ccc3nnc(-c4ccccn4)n3n2)cc1,active: 10.4 µM
4,Cc1ccc(C(=O)Nc2ccc(OCc3ccccc3)cc2)cc1[N+](=O)[O-],"inconclusive: 2.62 µM [inhibitor, single point]"
5,O=C1C=C(c2ccccc2)C(=O)N1Nc1ccccc1,inactive
6,C=Cn1ccnc1P(=S)(c1nccn1C=C)c1nccn1C=C,"inconclusive: 0.0033 µM [inhibitor, full curve, poor fit]"
7,O=C(Nc1ccccc1C(=O)NCCCN1CCOCC1)c1ccc(Cl)cc1,"inconclusive: 9.28 µM [inhibitor, partial curve, poor fit]"
8,O=C(c1cc(-c2ccc(Cl)cc2)on1)N1CCc2ccccc2C1,inactive
9,COc1ccc(N(CC(=O)NC2CCCCCC2)S(=O)(=O)c2ccccc2)cc1Cl,"inconclusive: 14.7 µM [inhibitor, partial curve, poor fit]"
10,c1ccc(-n2nnnc2SCCCSc2nc3ccccc3s2)cc1,active: 4.15 µM
11,O=C(COC(=O)/C=C/c1ccc(OC(F)F)cc1)NC1CCCC1,"inconclusive: 18.5 µM [inhibitor, single point]"
12,CCOC(=O)c1c(/N=C/c2ccc(O)cc2O)sc2c1CCC2,"inconclusive: 14.7 µM [inhibitor, single point]"
13,N#CCCn1cc(C(=O)Nc2ccc(C(=O)O)cc2)c(-c2cccc(Br)c2)n1,"inconclusive: 18.5 µM [inhibitor, single point]"
14,COC(=O)c1ccc(N/C=C\C(=O)c2ccc3c(c2)OCO3)cc1,inactive
15,Cc1cc(C)cc(C(=O)Nc2nnc(SCC(=O)NCC3CCCO3)s2)c1 (configuration not stated),inactive
16,CC(=O)N/C(=C\c1ccc(F)cc1)C(=O)OC(C)C,"inconclusive: 18.5 µM [inhibitor, single point]"
17,CCOC(=O)CSc1ccc2nnc(-c3ccncc3)n2n1,inactive
18,Cc1ccc(C(=O)N2CCC(C)CC2)cc1NC1=NC2CS(=O)(=O)CC2S1 (configuration not stated),inactive
19,O=C(N/N=C/c1ccc(OC(F)F)cc1)c1ccc(CSc2nc3ccccc3[nH]2)cc1,active: 13.1 µM
20,CCOC(=O)C1(CC2CC2)CCN(Cc2cnc(-c3ccc(OC)cc3)nc2)CC1,"inconclusive: 4.15 µM [inhibitor, partial curve]"
21,CN(C)C(CNc1ncnc2sccc12)c1cccs1 (configuration not stated),"inconclusive: 18.5 µM [inhibitor, single point]"
22,Cc1ccccc1/C=N/NC(=O)Cc1ccc(Cl)cc1,"inconclusive: 18.5 µM [inhibitor, single point]"
23,NNC(=O)CCC(=O)Nc1ccccc1,inactive
24,Cn1c(N)c(C(=O)COC(=O)c2cc(C(F)(F)F)nc3ccccc23)c(=O)n(Cc2ccccc2)c1=O,"inconclusive: 18.5 µM [inhibitor, single point]"

row,Compound,Potency
1,O=C(CNCC1CCCO1)Nc1ccccc1N1CCOCC1 (configuration not stated),"inconclusive: 14.7 µM [inhibitor, single point]"
2,O=C(Nc1ccc(SC(F)F)cc1)C1=COCCO1,active: 1.65 µM
3,Cn1c(N2CCOCC2)c(/C=N/OC(=O)c2cccnc2Cl)c2ccccc21,inactive
4,Cc1c(Cl)c([N+](=O)[O-])nn1CCCC(=O)Nc1cc(Oc2ccccc2)cc([N+](=O)[O-])c1,"inconclusive: 0.0029 µM [inhibitor, full curve, poor fit]"
5,COCCn1nnnc1CN(Cc1ccco1)Cc1cc2cc3c(cc2[nH]c1=O)OCO3,inactive
6,CCCCN(C(=S)SC)C1CCS(=O)(=O)C1 (configuration not stated),inactive
7,O=C(CCNC(=O)c1ccc(Br)cc1)NCC(c1ccco1)N1CCCCC1 (configuration not stated),"inconclusive: 5.22 µM [inhibitor, partial curve, poor fit]"
8,Cc1ccc(Cl)cc1NC(=O)Cn1nc(-c2cccs2)ccc1=O,"inconclusive: 11.7 µM [inhibitor, single point]"
9,CCOc1cc(/C=N/NC(=O)c2cccnc2)ccc1OC(=O)c1ccco1,inactive
10,CCCN(CCC)CCN1C(=O)C2C(C(=O)Nc3cccc(SC)c3)C3C=CC2(O3)C1C(=O)NC1CCCCC1 (configuration not stated),inactive
11,COc1ccc(CCN2CN(S(=O)(=O)c3ccc(C)cc3)c3nc4ccccc4nc32)cc1OC,inactive
12,CCOC(=O)C1=NN(c2ccc(C)cc2)CC1C(=O)OC (configuration not stated),active: 5.86 µM
13,O=C(CN1CCN(C(=O)c2cccc(-n3cnnn3)c2)CC1)Nc1ccccc1Cl,"inconclusive: 10.4 µM [inhibitor, single point]"
14,CC(CN1CCN(C)CC1)OC(=O)c1cccc(F)c1 (configuration not stated),"inconclusive: 11.7 µM [inhibitor, single point]"
15,CCOc1ccc(OCC(=O)Nc2ccccc2C(F)(F)F)cc1,inactive
16,COc1ccc(OCC(O)Cn2c(Br)nc3c2c(=O)[nH]c(=O)n3C)cc1 (configuration not stated),"inconclusive: 9.28 µM [inhibitor, partial curve]"
17,CC1=C(C(=O)OCc2ccc3c(c2)OCO3)C(c2ccccc2)NC(=O)N1 (configuration not stated),inactive
18,CCc1nnc(NC(=O)c2ccc(COc3ccc(C)cc3)o2)s1,"inconclusive: 0.522 µM [inhibitor, full curve, poor fit]"
19,COc1cc(/C=C2\NC(=S)N(C)C2=O)ccc1OCc1cccc(F)c1,inactive
20,Cc1ccccc1N1CC(C(=O)Nc2nnc(SCCC3OCCO3)s2)CC1=O (configuration not stated),"inconclusive: 5.86 µM [inhibitor, partial curve]"
21,Cc1cn(S(=O)(=O)c2ccccc2[N+](=O)[O-])cn1,"inconclusive: 18.5 µM [inhibitor, single point]"
22,CN(C)Cc1c(C(=O)N/N=C/c2ccoc2)nnn1-c1nonc1N,"inconclusive: 11.7 µM [inhibitor, single point]"
23,CCN(CC)c1ccc(NC(=O)CN2CCN(CC(=O)Nc3ccccc3F)CC2)cc1,inactive
24,CCC(C)(C)N1CC(=O)N(Cc2ccccc2)C(c2ccc(OC)cc2)C1=O (configuration not stated),inactive

row,Compound,Potency
1,CCCOc1ccc(C2=NNC(=O)CC2)cc1,inactive
2,O=C(CNC(=O)c1ccco1)OCC(=O)c1ccc2c(c1)CCCC2,"inconclusive: 18.5 µM [inhibitor, partial curve, poor fit]"
3,Cc1nn(-c2ccccc2)c(C)c1NC(=O)COC(=O)c1cc(Cl)ccc1O,inactive
4,CCC1(CC)C(=O)N(C)C(=O)NC1=Nc1ccccc1,"inconclusive: 3.7 µM [inhibitor, partial curve, poor fit]"
5,CCCS(=O)(=O)N1CCC(C(=O)NCCc2ccc(C)cc2)CC1,inactive
6,Cc1c(C(=O)N(C)c2cccc(Cl)c2)cnn1-c1ccccc1,"inconclusive: 9.28 µM [inhibitor, single point]"
7,CCCCCCSc1ccc([C@H]2N[C@@](CC(C)C)(C(=O)OC)[C@H]3C(=O)N(CC)C(=O)[C@@H]23)cc1,"inconclusive: 2.33 µM [inhibitor, full curve]"
8,COc1ccccc1CNC(=O)C(=O)NCC(c1ccco1)N1CCOCC1 (configuration not stated),"inconclusive: 1.65 µM [inhibitor, partial curve, poor fit]"
9,CCN(CC)Cc1c(C(=O)N/N=C/c2cccc(OCc3cccc(Cl)c3)c2)nnn1-c1nonc1N,inactive
10,Cc1ccc(C)n1-c1cccc(S(=O)(=O)N2CCOCC2)c1,active: 13.1 µM
11,Cn1nc(C(=O)Nc2cc(Cl)ccc2N2CCCC2)c2ccccc2c1=O,active: 13.1 µM
12,O=C(C(Cl)Cl)N1c2ccccc2OCC1c1ccccc1 (configuration not stated),"inconclusive: 18.5 µM [inhibitor, single point]"
13,CN1CCN(S(=O)(=O)c2ccc(Oc3ccc(F)c(Cl)c3)nc2)CC1,inactive
14,CCCn1c(SCC(=O)NCc2cccs2)nc2c1c(=O)n(C)c(=O)n2C,"inconclusive: 18.5 µM [inhibitor, single point]"
15,O=C(O)c1ccc(N/N=C/c2cc3c(cc2[N+](=O)[O-])OCO3)cc1,inactive
16,Cc1cc(=O)n2nc(N3CCCC(C(=O)NCc4ccc(Cl)cc4)C3)sc2n1 (configuration not stated),"inconclusive: 18.5 µM [inhibitor, single point]"
17,CCOc1ccc(S(=O)(=O)N(C(=O)c2ccco2)c2cc3sc(=O)oc3c3ccccc23)cc1,"inconclusive: 2.33 µM [inhibitor, single point]"
18,O=C(NCc1ccc2c(c1)OCO2)c1ccncc1,inactive
19,O=C(CSc1nnc(Cn2c(=O)sc3ccccc32)n1CCc1ccccc1)N1CCOCC1,"inconclusive: 18.5 µM [inhibitor, single point]"
20,O=C(O)CCC(=O)N1CCc2cc(S(=O)(=O)N3CCC(Cc4ccccc4)CC3)ccc21,"inconclusive: 16.5 µM [inhibitor, single point]"
21,CC[N+](C)(CC)CCOC(=O)C(O)(c1ccccc1)C1CCCCC1 (configuration not stated),inactive and active: 13.1 µM
22,Cc1c(NC(=O)/C(=C\c2ccccc2)NC(=O)c2ccccc2)c(=O)n(-c2ccccc2)n1C,"inconclusive: 18.5 µM [inhibitor, single point]"
23,CCn1cc(CN2N=C(C)CC2c2ccccc2)c(C)n1 (configuration not stated),"inconclusive: 14.7 µM [inhibitor, partial curve, poor fit]"
24,COCC(C)NC(=O)c1cc2cccc([N+](=O)[O-])c2[nH]1 (configuration not stated),"inconclusive: 18.5 µM [inhibitor, single point]"
